## Results of single-concentration screens

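Whole-parasite assay of Trypanosoma brucei over 72 hours; the read-out is not stated. Concentration: 30 µM. Direction is inferred from retests: higher values go with stronger inhibition. Values scatter widely below zero; nearly all retest evidence comes from the higher of the two concentrations used. Of about 64,000 compounds tested this way, about 940 (1.5%) reached 50% or more in at least one test.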

The filed quantity is “Percent Effect” (%). The controls that fix the scale are not given in the record; negative values are as filed. Compounds were drawn at random from those tested, without regard to their results.

| # | Compound | percent effect |
|---|---|---|
| 1 | `CCOc1ccc(C(=O)N2CCCC2Cn2cc(C)cn2)cn1` (stereo not shown) | -3.411 |
| 2 | `Cc1cnn(CCCNC2Cc3ccccc3C2)c1` | -207 |
| 3 | `CN1CCN(C(=O)Cc2csc(-c3ccsc3)n2)C(c2ccccc2)C1` (stereo not shown) | -33.87 |
| 4 | `CCOCCc1nc(CCc2ccccc2)n[nH]1` | 10.59 |
| 5 | `CC(C)(C)c1cc(C(=O)NCCn2nc3ccccn3c2=O)[nH]n1` | 24.44 |
| 6 | `CN(C)CC(=O)N1CCOCC2(C1)CN(c1ccccc1)C(=O)CO2` (stereo not shown) | -18.73 |
| 7 | `O=C(O)C(F)(F)F.[H][C@@]12CCCO[C@]1([H])[C@H](OC)CN2S(=O)(=O)c1cn(C)cn1` | -11.45 |
| 8 | `CN(CCc1cccs1)C(=O)Nc1cccc(S(C)(=O)=O)c1` | 9.36 |
| 9 | `O=C(O)C(F)(F)F.[H][C@@]12CN(C(=O)c3ccncc3F)C[C@]1([H])OCCN2CCOC` | -66.33 |
| 10 | `N#CC1(C(=O)N2CCCN(c3nccs3)CC2)CCCCC1` | -6.831 |
| 11 | `CC(C)[C@H](NS(C)(=O)=O)C(=O)NCc1cc(-c2ccco2)n[nH]1` | 4.016 |
| 12 | `CN1CCN(C(CNC(=O)CCn2cccn2)c2cccs2)CC1` (stereo not shown) | -15.25 |
| 13 | `Cc1oc(NC(=O)C(C)N2CCN(C(=O)C3CC3)CC2)c(C#N)c1C` (stereo not shown) | -12.52 |
| 14 | `O=C(O)C(F)(F)F.[H][C@@]12CCN(c3ccc(C)nn3)[C@]1([H])CC[C@@H](C(=O)N1CCCCO1)O2` | -35.72 |
| 15 | `CCN1CCN(c2nsc(-c3cccnc3)c2C#N)CC1` | -6.624 |
| 16 | `CCc1cc(N2CCC(NC3CN4CCC3CC4)CC2)nc(N(C)C)n1` (stereo not shown) | -5.848 |
| 17 | `Cc1c(CC(=O)N2CCN(C(C)C)CC2)nnn1-c1ccccc1` | -48.15 |
| 18 | `COCCC1COC2(CCN(C(=O)c3ccncc3)CC2)C1.O=C(O)C(F)(F)F` (stereo not shown) | -681.7 |
| 19 | `CCc1ccc(CN2Cc3nccn3CC(Cn3cncn3)C2)o1.O=C(O)C(F)(F)F` (stereo not shown) | -43.97 |
| 20 | `CN(Cc1cc[nH]n1)C(C(=O)O)c1ccc(Cl)cc1` (stereo not shown) | -23.6 |
| 21 | `COC(=O)c1cccc(S(=O)(=O)NC(=O)c2ccccc2F)c1` | -16.54 |
| 22 | `CN(C)C(=O)CC1CC2(CCN(Cc3ccsc3)CC2)c2ccccc21.O=C(O)C(F)(F)F` (stereo not shown) | 1.906 |
| 23 | `CCC(=O)Nc1cc(Br)cnc1OCC(F)(F)F` | 11.33 |
| 24 | `COCCCn1ccnc1-c1cnc(OC)nc1` | -10.38 |
| 25 | `Cc1noc(C)c1CN(C)C(=O)c1n[nH]c(N)c1-c1ccccc1` | -12.08 |
| 26 | `O=C(Cc1ccc2c(c1)CCO2)N1CCN(c2ccncc2)CC1` | -2.622 |
| 27 | `O=C(O)C(F)(F)F.O=C(c1ccsc1)N1CCc2c(COCC3CC3)cncc2C1` | -50.52 |
| 28 | `Cc1cc2c(=O)n(CCSc3ncn[nH]3)cnc2s1` | -22.79 |
| 29 | `O=C(Cn1ccc2ccccc21)NCc1cc(N2CCOCC2)ncn1` | -8 |
| 30 | `Cc1csc(CNC(=O)NC2CCN(c3ncccn3)CC2)n1` | 16.09 |
| 31 | `COc1cc(CNC(=O)Nc2cc(C(F)(F)F)c[nH]c2=O)ccn1` | 22.72 |
| 32 | `O=C(Nc1ccccc1)C1CCN(C(=O)COc2ccccc2F)CC1` | -18.77 |
| 33 | `COc1ccc2c(ccn2CCC(=O)O)c1` | -29.52 |
| 34 | `CCOC1CCCN(C(=O)Nc2cnn(CC(F)F)c2)C1` (stereo not shown) | -40.49 |
| 35 | `O=C(O)C(F)(F)F.[H][C@]12CCN(CC(C)C)CC[C@@]1([H])S(=O)(=O)CCN2C(C)=O` | -0.5941 |
| 36 | `CC(C)n1cc(C(=O)NCCCn2ccnc2)c2n[nH]c(=O)c-2c1` | -11.46 |
| 37 | `[H][C@]12CC[C@@]3(N=C(c4ccccc4)NC3=O)[C@@]1([H])CN(C(=O)NC)C2` | 10.94 |
| 38 | `N#Cc1cc(S(N)(=O)=O)ccc1NC1CCc2cc(Cl)ccc21` (stereo not shown) | 4.688 |
| 39 | `CC(=O)N1CCCN(Cc2ccon2)c2ccccc21` | -44.69 |
| 40 | `CCn1ncnc1C1CC(=O)NCc2nc(N)sc21` (stereo not shown) | -18.44 |
| 41 | `CC(C)Oc1ccc(NCc2ccc([S+](C)[O-])cc2)c(F)c1` (stereo not shown) | -37.91 |
| 42 | `CC(Cn1cccn1)NS(=O)(=O)Cc1ccccc1` (stereo not shown) | -23.77 |
| 43 | `CCN(Cc1ccoc1)c1ncc(S(N)(=O)=O)s1` | -44.66 |
| 44 | `Cn1ncc2c1CCCC2NCc1ccc(OCc2cccnc2)cc1` (stereo not shown) | -7.203 |
| 45 | `Fc1ccc(CN2CCCC(Cn3cncn3)C2)c2ncccc12` (stereo not shown) | 22.93 |
| 46 | `O=C(NCC1SCCc2ccccc21)c1cscn1` (stereo not shown) | 8.998 |
| 47 | `[H][C@@]12CCCO[C@]1([H])[C@H](NC(=O)N(C)C)CN2S(C)(=O)=O` | -55.28 |
| 48 | `Cn1ccc(C(=O)N2CCC(Cc3ccc4ncccc4c3)CC2)n1` | 14.29 |
| 49 | `CCN(C)C[C@@H]1CN(C(=O)c2cc(C(F)(F)F)n[nH]2)C[C@@H]1CO` | -9.169 |
| 50 | `CCOc1ccc(C(=O)N2Cc3cnc(CC(C)C)nc3C2)o1` | -25.97 |
| 51 | `O=C(NCc1nncn1C1CC1)c1ccccc1OCC1CC1` | -16.29 |
| 52 | `COCCC1COC2(CCN(C(=O)C3CCC3)CC2)C1` (stereo not shown) | -11.94 |
| 53 | `O=C(O)C(F)(F)F.[H][C@@]12CCN(CC3CCOCC3)C[C@]1(c1nc(C)no1)CCO2` | -12.88 |
| 54 | `Cc1nccn1CCC(=O)N1CCCN(CCCc2ccccc2)CC1` | 6.964 |
| 55 | `CC1(c2ncc(CN3CCSCC3)cn2)CCCCO1` (stereo not shown) | -24.18 |
| 56 | `Cn1c(CN2CCOC(Cn3cncn3)C2)nc2ccccc21` (stereo not shown) | -48.71 |
| 57 | `[H][C@]12CCN(C(=O)c3cc[nH]n3)CC[C@@]1([H])S(=O)(=O)N(CC)C2` | -25.49 |
| 58 | `Cc1cc(N(C)Cc2ncc[nH]2)nc(-c2ccccc2)n1` | -11.97 |
| 59 | `COCCNC(=O)C1CN(C(N)=O)Cc2ccnn2C1` (stereo not shown) | -13.61 |
| 60 | `CC(C)CN(Cc1ccccn1)Cc1ccccc1OCC(=O)O` | -7.318 |
| 61 | `Cc1c[nH]c(CN2CCC3(CCCN(Cc4ccc(F)c(F)c4)C3)C2)n1` (stereo not shown) | 12.03 |
| 62 | `COC(=O)c1ncccc1N1CCN(C(=O)CN2CCOCC2)CC1` | -71.31 |
| 63 | `O=C(c1cccs1)N1CCc2ncc(Cn3cncn3)n2CC1` | -149.7 |
| 64 | `Cc1cc(C(=O)N2CCN(C)CC2)nn1CC(=O)NCc1ccccn1.Cl` | -3.298 |
| 65 | `CCC(C)(C)N(C)CCOc1cccc(S(C)(=O)=O)c1` | -25.12 |
| 66 | `CC(C)c1nnc(CN2CCCC2C(=O)OCc2ccccc2)o1` (stereo not shown) | -20.5 |
| 67 | `CC(C)NC(=O)CCNC(=O)CCc1cc(Cl)cs1` | 67.45 |
| 68 | `CN(CCCNc1cc(N2CCCC2CO)ncn1)S(C)(=O)=O` (stereo not shown) | -78.4 |
| 69 | `Cc1nn(C2CCS(=O)(=O)C2)c(O)c1Cc1ccc(Br)cc1` (stereo not shown) | -21.7 |
| 70 | `CCN1CC(C(=O)NCc2cccc(SC)c2)CC1=O` (stereo not shown) | -44.9 |
| 71 | `c1[nH]c(CC2CCCC2)nc1CN1CCCC2(CCOC2)C1` (stereo not shown) | -8.248 |
| 72 | `CC(=O)N1CCC(Cc2cncc(-c3c(C)n[nH]c3C)n2)C1` (stereo not shown) | 8.406 |
| 73 | `Cn1ccc2cc(C(=O)N3CCOCC3)ccc21` | -23.26 |
| 74 | `Cc1cc(C)nc(N(C)CCN(C)C2CCCC2)n1` | -21.84 |
| 75 | `CCCN(C)C(=O)c1ccc2c(c1)[nH]c(=O)n2CCOCC` | 1.014 |
| 76 | `CCN(CC1CCOCC1)C(=O)C1CC(=O)N(Cc2cccnc2)C1` (stereo not shown) | -79.23 |
| 77 | `Cc1c[nH]c(C2CN(Cc3ccccc3C(=O)O)CCO2)n1` (stereo not shown) | -2.362 |
| 78 | `Cl.c1ccc(CN2CCNCC(Cc3cnccn3)C2)cc1` (stereo not shown) | -14.14 |
| 79 | `CN(C)c1cc(C2CCCN(S(=O)(=O)c3cn[nH]c3)C2)ccn1` (stereo not shown) | -2.52 |
| 80 | `COc1ccc(CC(=O)NCCn2nc3ccccn3c2=O)cc1` | -3.64 |
| 81 | `CCC(O)(CNCc1ncc[nH]1)c1ccc(Br)cc1` (stereo not shown) | -31.67 |
| 82 | `CCNC(=O)CN(CC)S(=O)(=O)c1c(Br)cc2[nH]c(=O)oc2c1Cl` | 8.194 |
| 83 | `Cn1ccnc1CCNC(=O)C1CCCN(Cc2cccc(F)c2)C1` (stereo not shown) | -24.61 |
| 84 | `Cn1nc2c(cc1=O)CN(CC1CCCCO1)CC2` (stereo not shown) | 13.41 |

Repeated from the top, 5 entries:

Compound	percent effect
CCOc1ccc(C(=O)N2CCCC2Cn2cc(C)cn2)cn1 (stereo not shown)	-3.411
Cc1cnn(CCCNC2Cc3ccccc3C2)c1	-207
CN1CCN(C(=O)Cc2csc(-c3ccsc3)n2)C(c2ccccc2)C1 (stereo not shown)	-33.87
CCOCCc1nc(CCc2ccccc2)n[nH]1	10.59
CC(C)(C)c1cc(C(=O)NCCn2nc3ccccn3c2=O)[nH]n1	24.44

From ChEMBL document CHEMBL3988442, “University of Dundee, Small-Polar-MMV Screening Library” (2021).